The results in this text go back to PMC8273494.

By UniProt entry, the sequences of proteins in these tests, tags left out. Where a name states a change or a piece, a line headed by the entry shows the natural chain unless it says otherwise.
UniProt P15924: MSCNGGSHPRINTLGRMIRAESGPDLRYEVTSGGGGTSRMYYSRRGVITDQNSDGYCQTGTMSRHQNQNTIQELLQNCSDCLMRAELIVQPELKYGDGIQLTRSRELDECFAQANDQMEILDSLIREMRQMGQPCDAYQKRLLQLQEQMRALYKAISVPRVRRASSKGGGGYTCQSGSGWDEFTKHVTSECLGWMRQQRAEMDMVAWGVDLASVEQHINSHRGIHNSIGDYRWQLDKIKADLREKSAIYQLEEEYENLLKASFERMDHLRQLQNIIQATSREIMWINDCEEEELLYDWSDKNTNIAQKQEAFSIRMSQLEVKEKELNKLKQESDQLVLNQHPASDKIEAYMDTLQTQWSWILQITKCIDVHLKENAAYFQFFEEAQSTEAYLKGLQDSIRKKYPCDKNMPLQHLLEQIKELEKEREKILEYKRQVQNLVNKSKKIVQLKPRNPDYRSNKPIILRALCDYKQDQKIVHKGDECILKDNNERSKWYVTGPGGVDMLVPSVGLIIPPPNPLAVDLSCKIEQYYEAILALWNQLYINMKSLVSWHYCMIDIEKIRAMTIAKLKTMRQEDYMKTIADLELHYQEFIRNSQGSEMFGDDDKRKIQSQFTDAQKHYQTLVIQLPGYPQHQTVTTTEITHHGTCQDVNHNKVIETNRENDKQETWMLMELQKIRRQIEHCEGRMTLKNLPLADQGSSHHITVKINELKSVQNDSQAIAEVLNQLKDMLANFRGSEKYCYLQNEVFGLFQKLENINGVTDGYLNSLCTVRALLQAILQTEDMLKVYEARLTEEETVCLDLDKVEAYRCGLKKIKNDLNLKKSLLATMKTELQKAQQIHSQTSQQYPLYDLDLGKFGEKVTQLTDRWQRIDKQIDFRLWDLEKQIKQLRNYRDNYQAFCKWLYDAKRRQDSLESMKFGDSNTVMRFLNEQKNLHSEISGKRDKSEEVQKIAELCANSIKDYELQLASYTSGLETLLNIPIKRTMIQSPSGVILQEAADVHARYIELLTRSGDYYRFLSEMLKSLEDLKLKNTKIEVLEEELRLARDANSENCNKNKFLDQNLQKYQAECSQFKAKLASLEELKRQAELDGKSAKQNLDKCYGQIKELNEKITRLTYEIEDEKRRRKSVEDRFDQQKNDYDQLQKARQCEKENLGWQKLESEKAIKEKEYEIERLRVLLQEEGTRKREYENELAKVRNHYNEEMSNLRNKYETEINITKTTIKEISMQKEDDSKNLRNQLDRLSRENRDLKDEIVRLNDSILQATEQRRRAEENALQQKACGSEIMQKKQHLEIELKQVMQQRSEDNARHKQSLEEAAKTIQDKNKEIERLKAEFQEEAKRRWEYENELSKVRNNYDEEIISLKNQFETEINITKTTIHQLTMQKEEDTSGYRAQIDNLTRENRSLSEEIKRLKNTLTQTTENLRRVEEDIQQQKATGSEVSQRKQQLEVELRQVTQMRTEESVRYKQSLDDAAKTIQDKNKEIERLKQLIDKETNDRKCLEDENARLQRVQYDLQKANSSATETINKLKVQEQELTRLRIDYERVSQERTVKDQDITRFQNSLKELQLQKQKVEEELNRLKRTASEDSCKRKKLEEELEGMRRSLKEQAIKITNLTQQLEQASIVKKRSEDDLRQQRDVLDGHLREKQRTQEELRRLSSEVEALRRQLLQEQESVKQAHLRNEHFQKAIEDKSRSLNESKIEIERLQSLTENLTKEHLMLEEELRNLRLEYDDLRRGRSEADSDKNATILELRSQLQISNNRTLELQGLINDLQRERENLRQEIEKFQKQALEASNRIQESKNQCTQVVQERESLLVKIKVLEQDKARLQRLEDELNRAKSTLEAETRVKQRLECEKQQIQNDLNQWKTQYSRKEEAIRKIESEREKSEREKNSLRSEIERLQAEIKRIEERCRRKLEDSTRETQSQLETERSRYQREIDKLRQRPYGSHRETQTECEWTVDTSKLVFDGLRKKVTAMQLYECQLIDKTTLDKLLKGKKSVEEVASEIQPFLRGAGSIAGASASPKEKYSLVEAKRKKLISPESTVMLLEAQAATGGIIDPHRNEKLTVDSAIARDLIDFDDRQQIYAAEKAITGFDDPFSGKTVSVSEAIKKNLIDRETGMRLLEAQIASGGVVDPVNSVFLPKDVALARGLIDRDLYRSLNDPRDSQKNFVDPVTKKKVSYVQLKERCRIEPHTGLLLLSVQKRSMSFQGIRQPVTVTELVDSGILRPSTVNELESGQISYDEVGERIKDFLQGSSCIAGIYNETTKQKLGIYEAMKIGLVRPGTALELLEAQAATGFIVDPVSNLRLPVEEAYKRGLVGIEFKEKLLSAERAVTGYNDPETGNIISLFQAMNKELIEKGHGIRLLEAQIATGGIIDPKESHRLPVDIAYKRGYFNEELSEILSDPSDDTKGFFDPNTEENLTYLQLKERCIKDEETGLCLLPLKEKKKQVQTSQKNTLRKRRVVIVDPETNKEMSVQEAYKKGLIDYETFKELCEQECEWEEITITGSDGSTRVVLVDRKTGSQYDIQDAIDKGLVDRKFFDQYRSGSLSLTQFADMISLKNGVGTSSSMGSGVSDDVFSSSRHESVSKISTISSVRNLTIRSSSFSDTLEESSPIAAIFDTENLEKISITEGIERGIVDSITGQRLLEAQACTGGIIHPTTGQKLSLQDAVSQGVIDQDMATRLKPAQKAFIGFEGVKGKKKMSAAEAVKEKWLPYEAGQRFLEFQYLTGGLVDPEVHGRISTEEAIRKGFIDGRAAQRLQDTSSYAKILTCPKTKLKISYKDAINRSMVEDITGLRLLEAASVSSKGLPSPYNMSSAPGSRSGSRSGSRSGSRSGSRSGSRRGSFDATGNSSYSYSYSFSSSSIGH
UniProt P09651: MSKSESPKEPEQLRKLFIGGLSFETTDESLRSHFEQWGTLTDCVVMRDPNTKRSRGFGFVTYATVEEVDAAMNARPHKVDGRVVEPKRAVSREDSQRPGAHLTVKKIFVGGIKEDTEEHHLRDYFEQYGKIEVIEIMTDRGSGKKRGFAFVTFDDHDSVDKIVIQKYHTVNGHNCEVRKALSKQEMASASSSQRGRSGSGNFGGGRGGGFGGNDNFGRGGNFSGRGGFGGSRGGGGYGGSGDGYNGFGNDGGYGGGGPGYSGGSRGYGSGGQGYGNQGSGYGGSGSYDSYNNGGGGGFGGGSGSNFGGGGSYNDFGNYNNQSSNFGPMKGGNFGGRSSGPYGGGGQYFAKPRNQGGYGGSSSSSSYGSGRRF
UniProt P22626: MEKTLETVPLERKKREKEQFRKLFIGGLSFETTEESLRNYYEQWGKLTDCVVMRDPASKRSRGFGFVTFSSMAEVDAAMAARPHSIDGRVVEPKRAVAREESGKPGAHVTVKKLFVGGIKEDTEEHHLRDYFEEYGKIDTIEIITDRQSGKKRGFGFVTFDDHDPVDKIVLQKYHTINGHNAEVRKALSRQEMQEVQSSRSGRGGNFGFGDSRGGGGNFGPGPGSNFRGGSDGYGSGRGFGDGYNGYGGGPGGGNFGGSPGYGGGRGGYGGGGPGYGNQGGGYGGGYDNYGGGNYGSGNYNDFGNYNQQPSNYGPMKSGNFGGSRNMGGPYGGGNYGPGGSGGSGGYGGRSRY
UniProt Q00839, whole entry: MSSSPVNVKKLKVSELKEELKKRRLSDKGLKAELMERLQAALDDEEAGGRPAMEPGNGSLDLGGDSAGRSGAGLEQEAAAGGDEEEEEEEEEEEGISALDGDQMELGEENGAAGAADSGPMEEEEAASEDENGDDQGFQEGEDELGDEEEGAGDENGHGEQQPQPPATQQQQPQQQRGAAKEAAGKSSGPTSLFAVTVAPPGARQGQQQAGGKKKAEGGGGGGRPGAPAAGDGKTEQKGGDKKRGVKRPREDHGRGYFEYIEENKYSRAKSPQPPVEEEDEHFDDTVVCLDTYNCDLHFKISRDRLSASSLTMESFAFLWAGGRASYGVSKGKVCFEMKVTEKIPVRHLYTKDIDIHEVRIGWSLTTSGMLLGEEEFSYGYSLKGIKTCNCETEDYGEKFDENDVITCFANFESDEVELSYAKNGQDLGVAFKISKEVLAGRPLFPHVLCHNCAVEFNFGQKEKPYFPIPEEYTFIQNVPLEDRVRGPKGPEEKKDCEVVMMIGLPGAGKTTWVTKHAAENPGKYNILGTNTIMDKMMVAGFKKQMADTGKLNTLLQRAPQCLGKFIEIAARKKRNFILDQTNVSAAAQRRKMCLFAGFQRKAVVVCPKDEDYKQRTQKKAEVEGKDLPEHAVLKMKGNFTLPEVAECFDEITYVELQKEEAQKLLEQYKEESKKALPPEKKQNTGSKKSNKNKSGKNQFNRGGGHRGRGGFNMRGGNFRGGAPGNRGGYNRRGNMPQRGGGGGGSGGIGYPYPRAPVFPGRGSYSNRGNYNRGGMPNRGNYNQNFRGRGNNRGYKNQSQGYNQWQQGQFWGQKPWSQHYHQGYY

Construct, isoform or probe ends are uncertain for at least one entry. Results from cells or extracts need not show a direct contact. The direction of at least one scale is not stated here. For some of these results: Tags and fusion partners may be left off the protein sequences shown.

What all share (assay): BLI pull-down + MS
The target of data set [1] is Desmoplakin (A375 nuclear extract) (UniProt P15924). To be noted: BLI: biotinylated aptamer on SA sensors in A375 nuclear protein extract, formic acid elution, protein in an extract. Background: BLI is a label-free optical method that tracks binding on a fibre tip over time.
The target of data set [2] is hnRNP A1 (A375 nuclear extract) (UniProt P09651). To be noted: PBS blank 25 PSMs, BLI: biotinylated aptamer on SA sensors in A375 nuclear protein extract, formic acid elution.
Data set [3] addresses hnRNP A2/B1 (A375 nuclear extract) (UniProt P22626). To be noted: PBS blank 24 PSMs, BLI: biotinylated aptamer on SA sensors in A375 nuclear protein extract, formic acid elution.
Data set [4] concerns the target T1, hnRNP D0 (A375 nuclear extract) (UniProt Q14103).
T1 sequence (looked up, limits assumed): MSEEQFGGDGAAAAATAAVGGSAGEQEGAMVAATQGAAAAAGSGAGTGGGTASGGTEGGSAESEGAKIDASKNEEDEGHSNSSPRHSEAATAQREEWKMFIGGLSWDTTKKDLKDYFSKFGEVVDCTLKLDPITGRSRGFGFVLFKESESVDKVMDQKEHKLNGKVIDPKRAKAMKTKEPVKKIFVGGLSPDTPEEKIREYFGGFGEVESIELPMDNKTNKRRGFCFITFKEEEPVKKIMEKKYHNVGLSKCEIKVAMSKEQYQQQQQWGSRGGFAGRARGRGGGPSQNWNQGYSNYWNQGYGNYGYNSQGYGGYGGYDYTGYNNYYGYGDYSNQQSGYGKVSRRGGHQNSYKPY
As to conditions: PBS blank 8 PSMs, BLI: biotinylated aptamer on SA sensors in A375 nuclear protein extract, formic acid elution, protein in an extract.

Data set [5] deals with hnRNP U (A375 nuclear extract) (UniProt Q00839). As to conditions: PBS blank none, BLI: biotinylated aptamer on SA sensors in A375 nuclear protein extract, formic acid elution, protein in an extract.
Setting [6] is: protein in an …, single-stranded DNA.
[7] abbreviates: phosphorothioate 3' of nt 1,2,3,9,10,11,12,13,14,28,29,30 (stereorandom), protein in an extract, label: 5'-biotin, synthetic backbone.

Consider TGGTGCGGTGTGGGTCGAGTGGTATGGTATG [NC], for which the binding signal in data set [1] (below PBS blank (42 PSMs), single-stranded DNA) is 28 PSMs; in data set [2] (setting [6]), 111 PSMs; in data set [3] (setting [6]), 63 PSMs; in data set [4] (single-stranded DNA), 55 PSMs; in data set [5] (single-stranded DNA) it was 79 PSMs.

In the case of TGTGGCGAGGTAGGTGGGGTGTGTGTGTATC [WW-24], the binding signal is 85 PSMs in data set [1] (PBS blank 42 PSMs, phosphorothioate 3' of nt 1,2,3,9,10,11,12,13,14,28,29,30 (stereorandom), label: 5'-biotin, synthetic backbone); 281 PSMs in data set [2] (setting [7]); 229 PSMs in data set [3] (setting [7]); 39 PSMs in data set [4] (NC 55 PSMs, phosphorothioate 3' of nt 1,2,3,9,10,11,12,13,14,28,29,30 (stereorandom), label: 5'-biotin, synthetic backbone); 81 PSMs in data set [5] (NC 79 PSMs, phosphorothioate 3' of nt 1,2,3,9,10,11,12,13,14,28,29,30 (stereorandom), label: 5'-biotin, synthetic backbone).
